# Measured values: the supplement of paper PMC4635364
# Where a name gives a salt, the structure may show the parent alone. Some of the results follow. This data set is noisy: repeats of one test often differ as much as different tests do.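 Human fetal ventral-midbrain neural progenitor line ReNCell VM, differentiated without mitogens. Images stained for doublecortin (early neurons) or tyrosine hydroxylase (dopaminergic neurons) were scored by blinded raters against untreated wells (0 = no change). Repeats and both raters were averaged, and compounds averaging 2 or higher were picked as hits for retesting.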
# Key:
# ReNCell VM [1] = experiment: neuronal differentiation score (DCX+ cell fraction vs untreated, manual image score) (score (-3 to 3)); higher = more neuronal differentiation; details: 2 uM, 2 weeks
# ReNCell VM [2] = experiment: dopaminergic neuron differentiation score (TH+ cell fraction vs untreated, manual image score) (score (0 to 3)); higher = more TH+ dopaminergic neuron differentiation; details: 2 uM, 4 weeks, BDNF 10 ng/ml + GDNF 10 ng/ml
structure (smiles),measurement,setting,value
O=C(O)[C@]1(O)C[C@@H](O)[C@@H](O)[C@H](O)C1 [Quinic acid],neuronal differentiation score,ReNCell VM [1]; library: Phytochemical,inactive: 0
same,dopaminergic neuron differentiation score,ReNCell VM [2]; library: Phytochemical,inactive: 0
C[C@]12CCC(=O)C=C1CC[C@@H]1[C@@H]2[C@@H](O)C[C@@]2(C)[C@H]1CC[C@]2(O)C(=O)CO,neuronal differentiation score,ReNCell VM [1]; library: Spectrum,inactive: 0
same,dopaminergic neuron differentiation score,ReNCell VM [2]; library: Spectrum,inactive: 0
COc1ccc(C(=O)Nc2sc3c(c2C(N)=O)CCCC3)cc1OC,neuronal differentiation score,ReNCell VM [1]; library: Tocriscreen,inactive: 0
same,dopaminergic neuron differentiation score,ReNCell VM [2]; library: Tocriscreen,inactive: 0
OC1(c2ccc(Cl)cc2)CCN(Cc2c[nH]c3ccccc23)CC1,neuronal differentiation score,ReNCell VM [1]; library: LOPAC,inactive: 0
same,dopaminergic neuron differentiation score,ReNCell VM [2]; library: LOPAC,inactive: 0
CC(O)CC(C)(C)O (configuration not stated),neuronal differentiation score,ReNCell VM [1]; library: Spectrum,inactive: 0
same,dopaminergic neuron differentiation score,ReNCell VM [2]; library: Spectrum,inactive: 1
COc1cc(N)c(Cl)cc1C(=O)OCCN1CCCCC1,neuronal differentiation score,ReNCell VM [1]; library: LOPAC,inactive: 0
same,dopaminergic neuron differentiation score,ReNCell VM [2]; library: LOPAC,inactive: 0
CC(Oc1ccc(O)cc1)(P(=O)(O)O)P(=O)(O)O,neuronal differentiation score,ReNCell VM [1]; library: Tocriscreen,inactive: 0
same,dopaminergic neuron differentiation score,ReNCell VM [2]; library: Tocriscreen,inactive: 0
CCCCC/C=C\C[C@@H](O)/C=C/c1cccc(C[C@@H](O)CCCCO)n1,neuronal differentiation score,ReNCell VM [1]; library: LOPAC,inactive: 0
same,dopaminergic neuron differentiation score,ReNCell VM [2]; library: LOPAC,inactive: 0
Clc1ccc(C(Cn2ccnc2)OCc2ccsc2Cl)c(Cl)c1 (configuration not stated),neuronal differentiation score,ReNCell VM [1]; library: Spectrum,inactive: 0
same,dopaminergic neuron differentiation score,ReNCell VM [2]; library: Spectrum,inactive: 0
CN[C@@H]1[C@H](O[C@H]2[C@H](O[C@H]3[C@H](O)[C@@H](O)[C@H](NC(=N)N)[C@@H](O)[C@@H]3NC(=N)N)O[C@@H](C)[C@]2(O)CO)O[C@@H](CO)[C@H](O)[C@H]1O,neuronal differentiation score,ReNCell VM [1]; library: Spectrum,inactive: 0
same,dopaminergic neuron differentiation score,ReNCell VM [2]; library: Spectrum,inactive: 0
"O=C(O)[C@H]1C[C@H](C(=O)O)N1 (relative stereo) [trans-Azetidine-2,4-dicarboxylic acid]",neuronal differentiation score,ReNCell VM [1]; library: LOPAC,inactive: 0
same,dopaminergic neuron differentiation score,ReNCell VM [2]; library: LOPAC,inactive: 0
N[C@@H](Cc1c[nH]c2ccc(O)cc12)C(=O)O [5-Hydroxy-L-tryptophan],neuronal differentiation score,ReNCell VM [1]; library: LOPAC,inactive: 0
same,dopaminergic neuron differentiation score,ReNCell VM [2]; library: LOPAC,inactive: 0
CC(Cc1cccc(C(F)(F)F)c1)NCCOC(=O)c1ccccc1 (configuration not stated) [Benfluorex hydrochloride],neuronal differentiation score,ReNCell VM [1]; library: Prestwick,inactive: 0
same,dopaminergic neuron differentiation score,ReNCell VM [2]; library: Prestwick,inactive: 1
COc1ccccc1N1CCN(CC(O)COc2cccc3ccccc23)CC1 (configuration not stated),neuronal differentiation score,ReNCell VM [1]; library: Spectrum,inactive: -1
same,dopaminergic neuron differentiation score,ReNCell VM [2]; library: Spectrum,inactive: 0
COC(=O)C(O)c1ccccc1 (configuration not stated),neuronal differentiation score,ReNCell VM [1]; library: Spectrum,inactive: 0
same,dopaminergic neuron differentiation score,ReNCell VM [2]; library: Spectrum,inactive: 0
CCS(=O)(=O)CCn1c([N+](=O)[O-])cnc1C [Tinidazole],neuronal differentiation score,ReNCell VM [1]; library: Prestwick,inactive: 0
same,dopaminergic neuron differentiation score,ReNCell VM [2]; library: Prestwick,inactive: 0
CN[C@@H]1[C@H](O[C@H]2[C@H](O[C@H]3[C@H](O)[C@@H](O)[C@H](N=C(N)N)[C@@H](O)[C@@H]3N=C(N)N)O[C@@H](C)[C@]2(O)C=O)O[C@@H](CO)[C@H](O)[C@H]1O [Streptomycin sulfate],neuronal differentiation score,ReNCell VM [1]; library: Prestwick,inactive: 0
same,dopaminergic neuron differentiation score,ReNCell VM [2]; library: Prestwick,inactive: 0
Cc1cc(NS(=O)(=O)c2ccc(N)cc2)no1 [Sulfamethoxazole],neuronal differentiation score,ReNCell VM [1]; library: Prestwick,inactive: 0
same,dopaminergic neuron differentiation score,ReNCell VM [2]; library: Prestwick,inactive: 0
C[C@@H]1CC[C@@]2(OC1)O[C@H]1C[C@H]3[C@@H]4CC=C5C[C@@H](O)CC[C@]5(C)[C@H]4CC[C@]3(C)[C@H]1[C@@H]2C,neuronal differentiation score,ReNCell VM [1]; library: Spectrum,inactive: 0
same,dopaminergic neuron differentiation score,ReNCell VM [2]; library: Spectrum,inactive: 0
COc1c2occc2cc2ccc(=O)oc12 [Methoxy-8-psoralen],neuronal differentiation score,ReNCell VM [1]; library: Phytochemical,inactive: 0
same,dopaminergic neuron differentiation score,ReNCell VM [2]; library: Phytochemical,inactive: 0
COc1cc(-c2ccc(/N=N/c3ccc4c(S(=O)(=O)O)cc(S(=O)(=O)O)c(N)c4c3O)c(OC)c2)ccc1/N=N/c1ccc2c(S(=O)(=O)O)cc(S(=O)(=O)O)c(N)c2c1O,neuronal differentiation score,ReNCell VM [1]; library: Spectrum,inactive: 0
same,dopaminergic neuron differentiation score,ReNCell VM [2]; library: Spectrum,inactive: 0
CCC(C)n1ncn(-c2ccc(N3CCN(c4ccc(OCC5COC(Cn6cncn6)(c6ccc(Cl)cc6Cl)O5)cc4)CC3)cc2)c1=O (configuration not stated),neuronal differentiation score,ReNCell VM [1]; library: Spectrum,inactive: 1
same,dopaminergic neuron differentiation score,ReNCell VM [2]; library: Spectrum,inactive: 1
OCc1ccccc1O,neuronal differentiation score,ReNCell VM [1]; library: Spectrum,inactive: 0
same,dopaminergic neuron differentiation score,ReNCell VM [2]; library: Spectrum,inactive: 0
C[C@]12CC[C@H]3C(=CCc4cc(O)ccc43)[C@@H]1CCC2=O,neuronal differentiation score,ReNCell VM [1]; library: Spectrum,inactive: 0
same,dopaminergic neuron differentiation score,ReNCell VM [2]; library: Spectrum,inactive: 0
CCOC(=O)OC(C)OC(=O)[C@@H]1N2C(=O)[C@@H](NC(=O)[C@H](N)c3ccccc3)[C@H]2SC1(C)C (some centres not stated),neuronal differentiation score,ReNCell VM [1]; library: Spectrum,inactive: 0
same,dopaminergic neuron differentiation score,ReNCell VM [2]; library: Spectrum,inactive: 0
O=C(O)CCC/C=C\C[C@@H]1[C@@H](/C=C/[C@H](O)C2Cc3ccccc3C2)[C@@H](F)C[C@@H]1O,neuronal differentiation score,ReNCell VM [1]; library: LOPAC,inactive: 0
same,dopaminergic neuron differentiation score,ReNCell VM [2]; library: LOPAC,inactive: 0
CC(=O)Oc1cc(C(C)C)c(OCCN(C)C)cc1C [Moxisylyte hydrochoride],neuronal differentiation score,ReNCell VM [1]; library: Prestwick,inactive: 0
same,dopaminergic neuron differentiation score,ReNCell VM [2]; library: Prestwick,inactive: 0
"CC[C@@H]1Cc2cc(O)ccc2C2=C1c1ccc(O)cc1C[C@H]2CC [(R,R)-cis-Diethyl tetrahydro-2,8-chrysenediol]",neuronal differentiation score,ReNCell VM [1]; library: LOPAC,inactive: 0
same,dopaminergic neuron differentiation score,ReNCell VM [2]; library: LOPAC,inactive: 0
C=CC1=C(C)c2cc3[nH]c(cc4nc(cc5[nH]c(cc1n2)c(C)c5CCC(=O)O)C(CCC(=O)O)=C4C)c(C)c3C=C [Protoporphyrin IX disodium],neuronal differentiation score,ReNCell VM [1]; library: LOPAC,inactive: 0
same,dopaminergic neuron differentiation score,ReNCell VM [2]; library: LOPAC,inactive: 0
CC(C)/C(O)=C1/C(=O)O[C@@H](c2ccoc2)[C@]2(C)C(O)[C@@H](O)[C@@]34OC5(C)OC67CC(C)(C(O)[C@]6(O)[C@@H](O)[C@]3(O5)C12)[C@H](CC(=O)O)[C@]74C (some centres not stated),neuronal differentiation score,ReNCell VM [1]; library: Spectrum,inactive: 0
same,dopaminergic neuron differentiation score,ReNCell VM [2]; library: Spectrum,inactive: 0
C[C@H](N)[C@H](O)c1cccc(O)c1,neuronal differentiation score,ReNCell VM [1]; library: Spectrum,inactive: 0
same,dopaminergic neuron differentiation score,ReNCell VM [2]; library: Spectrum,inactive: 0

# Exported as tab-separated lines: entries from further up.
structure (smiles)	measurement	setting	value
CC(Oc1ccc(O)cc1)(P(=O)(O)O)P(=O)(O)O	dopaminergic neuron differentiation score	ReNCell VM [2]; library: Tocriscreen	inactive: 0
CCCCC/C=C\C[C@@H](O)/C=C/c1cccc(C[C@@H](O)CCCCO)n1	neuronal differentiation score	ReNCell VM [1]; library: LOPAC	inactive: 0
same	dopaminergic neuron differentiation score	ReNCell VM [2]; library: LOPAC	inactive: 0

# Reformatted with bars between the fields: part of the list above
structure (smiles) | measurement | setting | value
C=CC1=C(C)c2cc3[nH]c(cc4nc(cc5[nH]c(cc1n2)c(C)c5CCC(=O)O)C(CCC(=O)O)=C4C)c(C)c3C=C [Protoporphyrin IX disodium] | dopaminergic neuron differentiation score | ReNCell VM [2]; library: LOPAC | inactive: 0
CC(C)/C(O)=C1/C(=O)O[C@@H](c2ccoc2)[C@]2(C)C(O)[C@@H](O)[C@@]34OC5(C)OC67CC(C)(C(O)[C@]6(O)[C@@H](O)[C@]3(O5)C12)[C@H](CC(=O)O)[C@]74C (some centres not stated) | neuronal differentiation score | ReNCell VM [1]; library: Spectrum | inactive: 0
